According to US20020165140A1:
No constants are given. Whether binding was seen depends on the method and setting.

Molecular target: VP16-Arnt
Experiment: mammalian two-hybrid assay in COS7 cells, GAL4-driven luciferase reporter

B1: GAL4-IPAS (protein, not shown: large carriers)
chain: MALGLQRVRSNTELRKEKSRDAARSRRSQETEVLYQLAHTLPFARGVSAHLDKASIMRLTISYLRMHRLCAAGGKRGRATGRLLPEGPGGFRHGTHRRGRHGLPVGKCQQAPGPQSVDLCSSSLIHNPTPGTNFSLELIGHSIFDFIHPCDQEELQDALTPRPNLSKKKLEAPTERHFSLRMKSTLTSRGRTLNLKAATWKVLHCSGHMRAYKPPAQTSPAGSPRSEPPLQCLVLICEAIPQLPFHDGATLGLPQEKTPISTLFTPLWKALLCLVKRWPVQVLQGKGTESSLPSWVLWALNRKNCPG
binding: no binding
